This is an account of results in PMC10132990.

Chains of the proteins cited; added tags and fusions are not shown.
UniProt P55088: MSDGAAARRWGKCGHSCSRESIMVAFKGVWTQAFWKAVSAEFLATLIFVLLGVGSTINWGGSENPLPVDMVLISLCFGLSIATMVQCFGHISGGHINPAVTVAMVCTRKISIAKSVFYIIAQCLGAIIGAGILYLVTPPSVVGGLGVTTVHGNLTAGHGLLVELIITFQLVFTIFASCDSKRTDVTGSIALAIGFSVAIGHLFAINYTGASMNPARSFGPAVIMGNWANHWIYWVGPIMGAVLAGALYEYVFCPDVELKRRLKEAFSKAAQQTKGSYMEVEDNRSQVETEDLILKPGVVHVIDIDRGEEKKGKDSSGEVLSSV
UniProt P26040: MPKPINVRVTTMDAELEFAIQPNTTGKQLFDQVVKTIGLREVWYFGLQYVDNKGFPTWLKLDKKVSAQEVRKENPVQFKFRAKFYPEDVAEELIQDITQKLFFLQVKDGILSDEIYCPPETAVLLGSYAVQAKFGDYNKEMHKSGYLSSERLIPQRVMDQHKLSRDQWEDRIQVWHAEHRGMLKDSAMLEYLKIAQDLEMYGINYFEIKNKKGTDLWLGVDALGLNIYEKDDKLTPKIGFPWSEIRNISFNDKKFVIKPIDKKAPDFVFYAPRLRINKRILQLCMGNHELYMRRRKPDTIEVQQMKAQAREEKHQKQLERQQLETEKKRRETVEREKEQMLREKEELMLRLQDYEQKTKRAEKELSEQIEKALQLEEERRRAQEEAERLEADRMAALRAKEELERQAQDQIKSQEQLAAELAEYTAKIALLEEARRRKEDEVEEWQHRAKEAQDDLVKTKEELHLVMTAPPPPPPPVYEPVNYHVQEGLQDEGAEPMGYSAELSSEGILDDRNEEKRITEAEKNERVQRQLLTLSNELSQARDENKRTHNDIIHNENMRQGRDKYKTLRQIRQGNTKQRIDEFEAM
UniProt P23242: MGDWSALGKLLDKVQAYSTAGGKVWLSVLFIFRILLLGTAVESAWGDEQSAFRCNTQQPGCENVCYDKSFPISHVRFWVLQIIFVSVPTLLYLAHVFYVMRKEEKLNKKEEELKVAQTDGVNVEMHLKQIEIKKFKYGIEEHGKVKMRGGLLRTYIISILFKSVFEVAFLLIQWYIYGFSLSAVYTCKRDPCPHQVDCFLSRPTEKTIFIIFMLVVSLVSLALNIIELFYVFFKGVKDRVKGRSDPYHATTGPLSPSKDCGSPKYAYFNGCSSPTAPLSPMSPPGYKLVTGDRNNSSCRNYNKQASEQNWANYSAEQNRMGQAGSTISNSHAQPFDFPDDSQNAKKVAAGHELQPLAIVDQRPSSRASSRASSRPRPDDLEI

Among the targets are AQP4–BioID2 (UniProt P55088); EZR–BioID2 (UniProt P26040); CX43–BioID2 (UniProt P23242).
Common to all, as to experiment: proximity labelling; subcompartment BioID2 fusions (AQP4, EZR, GLT1, KIR4.1, CX43) in striatal astrocytes in vivo; biotin 24 mg/kg for 7 days; NeutrAvidin pull-down, LC-MS/MS; log2(FC) > 1 and FDR < 0.05 versus the same protein fused to GFP
Another test deals with T1, KIR4.1-BioID2 (UniProt Q9JM63).
T1 sequence: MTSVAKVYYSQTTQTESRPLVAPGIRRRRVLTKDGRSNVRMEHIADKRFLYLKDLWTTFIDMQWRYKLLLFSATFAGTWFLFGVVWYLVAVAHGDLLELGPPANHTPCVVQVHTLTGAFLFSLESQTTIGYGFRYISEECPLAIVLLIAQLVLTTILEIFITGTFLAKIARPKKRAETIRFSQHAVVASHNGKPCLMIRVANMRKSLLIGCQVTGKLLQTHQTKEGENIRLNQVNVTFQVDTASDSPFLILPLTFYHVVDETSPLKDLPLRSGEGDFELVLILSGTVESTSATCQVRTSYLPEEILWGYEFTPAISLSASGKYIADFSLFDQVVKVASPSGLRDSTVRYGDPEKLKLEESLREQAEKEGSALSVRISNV

No constants are given. Whether binding was seen depends on the method and setting. In cells and extracts the contact can be indirect. A yes stands for co-enrichment or nearness to the bait. Other partners may have been found. For some of these results: No binding means not detected with the bait.

B1: SAPAP3 (endogenous) (protein, UniProt Q6PFD5 1-977)
chain: MRGYHGDRGSHPRPARFADQQHMDVGPAARAPYLLGSREAFSTEPRFCAPRAGLGHLSPEGPLSLSEGPSSVGPEGGPGGVGAGGGSSTFPRMYPGQGPFDTCEDCVGHPQGKGATRLPPTLLDQFEKQLPVQQDGFHTLPYQRGPAGPGPGPGSGAAPEARSESPSRIRHLVHSVQKLFAKSHSLEAPGKRDYNGPKADGRGSSGGDSYSGPGSGGTPTSHHHHHHHHHHHHQSRHGKRSKSKDRKGDGRHQTKATGWWSSDDNLDSDSGFLGGRPPGEPGGPFCLDAPDGSYRDLSFKGRSGGSEGRCLACTGMSMSLDGQSVKRSAWHTMMVSQGRDGYPGAGPGKGLLGPETKAKARTYHYLQVPQDDWGGYPTGGKDGEIPCRRMRSGSYIKAMGDEESGDSDGSPKTSPKALARRFASRRSSSVDTARINCCVPPRIHPRSSIPGYSRSLTTGQLSEEFNQQLEAVCGSVFGELESQAVDALDLPGCFRMRSHSYLRAIQAGCSQDDDCLPLLAAPASVSGRPGSSFNFRKAPPPIPPGSQAPPRISITAQSSTDSAHESFTAAEGPARRCSSADGLDGPTMGARTLELAPVPPRASPKPPTLIIKTIPGREELRSLARQRKWRPSIGVQVETISDSDTENRSRREFHSIGVQVEEDKRRARFKRSNSVTAGVQADLELEGLAGLATVATEDKALQFGRSFQRHASEPQPGPRAPTYSVFRTVHTQGQWAYREGYPLPYEPPATDGSPGPTPVPAPGPGSGRRDSWMERGSRSLPDSGRTSPCPRDGEWFIKMLRAEVEKLEHWCQQMEREAEDYELPEEILEKIRSAVGSTQLLLSQKVQQFFRLCQQSLDPTAFPVPTFQDLAGFWDLLQLSIEDVTLKFLELQQLKANSWKLLEPKEEKKVPPPIPKKPSRGRGVPVKERSLDSVDRQRQEARKRLLAAKRAASFRHSSATESADSIEIYIPEAQTRL
B1: the binding result with KIR4.1-BioID2 is listed as “no binding”; in the test with AQP4–BioID2, “no binding”; in the test with EZR–BioID2, “binds”; in the test with CX43–BioID2, “no binding”.
